In PubChem BioAssay AID624291 (National Center for Advancing Translational Sciences (NCATS), 2012):
About 220 (0.063%) of roughly 350,000 compounds were called active. Inconclusive means that the source gave no clear call. Such entries were picked first, then a sample of the others. Calls come from the whole dose curve; as a rule, active = well fitted activation curve with a large enough effect; inconclusive = small, poorly fitted or top-dose-only effect; inactive = no such curve, though single readings can be large or run the other way. A potency beside an inconclusive call is a rough fit, not a confirmed value.

Experiment: qHTS for Activators of Integrin-Mediated Alleviation for Muscular Dystrophy; note: nearly all actives have a fitted effect of over 60% in size;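 for activation: 100% = response of the positive control SU9516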
Settings: alpha7betagal myoblasts, beta-gal FDG fluorescence, 48 h; activation: at 38.3 µM (top of the series)
How it was run: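 alpha7betagal+/- myoblasts (passage 13, 250/well) treated 48 h at 37C with compounds at 1:260 dilution of DMSO stock. Lysed, then beta-galactosidase activity read as FDG fluorescence (ex 480/em 540) after 30 min, with pre-read for autofluorescence.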
Potency is the fitted concentration of half-maximal effect.

Structure (SMILES)	Potency	activation
CC(=O)Nc1ccc(NS(=O)(=O)c2ccc3[nH]c(=O)[nH]c3c2)cc1	inconclusive: 3.16 µM [activator, single point]	–
Cc1ccc(-c2c(C(=O)O)c3ccccc3[nH]c2=O)cc1	inconclusive: 0.501 µM [activator, partial curve, poor fit]	–
COc1ccc(CC(=O)N2CCc3ccccc3C2)cc1	inconclusive: 22.4 µM [activator, single point]	–
Cc1ccc(Nc2nc(-c3c(C)nc4ncccn34)cs2)cc1	–	inactive: 3.71%
CN1CCN(NC(=O)CN(C)S(=O)(=O)c2cc(Cl)ccc2Cl)CC1	inconclusive: 1 µM [activator, full curve, poor fit]	–
CC(SCc1ccccc1)C(=O)Nc1ccccc1 (stereo not drawn)	inconclusive: 3.55 µM [activator, partial curve, poor fit]	–
Cc1cc(-c2nc(C)c(-c3nnc(SCC(=O)Nc4ccc(Cl)cc4)n3C)s2)no1	inconclusive: 5.01 µM [activator, single point]	–
Cc1nc(N2CCN(c3ccccn3)CC2)c2c(C)c(C(=O)Nc3ccc(F)c(Cl)c3)sc2n1	inconclusive: 2.82 µM [activator, full curve, poor fit]	–
O=C1c2ccccc2NC(c2cc(Cl)cc(Cl)c2O)N1Cc1cccnc1 (stereo not drawn)	–	inactive: 2.15%
Cn1c(=O)c2c(nc(N/N=C/c3ccco3)n2C)n(C)c1=O	–	inactive: 35%
COc1ccc(OCCCN2CCCCCC2)cc1	–	inactive: -20.4%
COc1ccc(NC(=O)CS(=O)(=O)c2ccccc2Cl)cc1	inconclusive: 11.2 µM [activator, single point]	–
CCOc1ccccc1NC(=O)Nc1cc(C(=O)O)ccc1C	inconclusive: 5.01 µM [activator, single point]	–
Cc1ccc(NC(=S)NC2CCN(Cc3ccccc3)CC2)cc1C	–	inactive: -16.9%
COc1ccc(C(=O)N2CCNC(=O)C2)cc1S(=O)(=O)Nc1ccc(Br)cc1	inconclusive: 3.55 µM [activator, single point]	–
COc1ccccc1/C=C1\SC(N2CCC(C)CC2)=NC1=O	inconclusive: 5.01 µM [activator, single point]	–
CC(C)(C)C1(O)CC(C(F)(F)F)=NN1C(=O)Cc1ccc([N+](=O)[O-])cc1 (stereo not drawn)	–	inactive: 15.3%
COc1cccc(C2CCCCN(C)C2=O)c1 (stereo not drawn)	inconclusive: 28.2 µM [activator, single point]	–
Cc1ccc(C(=O)COC(=O)c2ccc3c(c2)C(=O)N(c2cccc4ncccc24)C3=O)cc1C	–	inactive: 0.417% [at 7.66 µM]
CCc1ccc(/C(C)=N/NC(=O)c2c[nH]c3ccccc23)s1	–	inactive: 19.9%
O=C1Nc2ccc(Cl)cc2C12OCCCO2	inconclusive: 5.62 µM [activator, partial curve, poor fit]	–
Cc1cccc(C)c1OCCN1CCCC1	–	inactive: -11.2%
COc1cc2c(cc1NC(=O)CSc1nnc(COc3ccc(Cl)cc3)n1C)oc1ccccc12	inconclusive: 2.51 µM [activator, single point]	–

Structure (SMILES)	Potency	activation
CC(=O)C(Cc1ccccc1)NC(=O)COc1ccc2c(c1)OCO2 (stereo not drawn)	inconclusive: 5.01 µM [activator, single point]	–
O=c1cc(-c2ccc(Cl)cc2)[nH]c2ccccc12	inconclusive: 28.2 µM [activator, single point]	–
Cc1cccc(NC(=O)C2C(c3ccccc3)C2(Cl)Cl)c1 (stereo not drawn)	inconclusive: 5.01 µM [activator, single point]	–
O=C(CN1CCCC1)N1c2ccccc2C=Cc2ccccc21	inconclusive: 8.91 µM [activator, partial curve, poor fit]	–
CC12CCC(C[N+](C)(C)C1)C2(C)C (stereo not drawn)	inconclusive: 5.01 µM [activator, single point]	–
CCN(CC)S(=O)(=O)c1cccc(NC2=NCCCCC2)c1	inconclusive: 31.6 µM [activator, partial curve, poor fit]	–
Cc1cccc(-c2ocnc2C(=O)Nc2ccccc2NC(=O)c2ccccn2)c1	–	inactive: -68%
COc1cc(CCC(=O)NCc2ccc(F)cc2)cc(OC)c1OC	inconclusive: 28.2 µM [activator, single point]	–
Nc1nc(-c2cccnc2)nn1C(=O)c1ccc(F)cc1	inconclusive: 35.5 µM [activator, partial curve, poor fit]	–
CCc1nnc(NC(=O)CCC(=O)N2CCN(S(=O)(=O)c3cc(Cl)ccc3OC)CC2)s1	inconclusive: 28.2 µM [activator, single point]	–
Cc1cccc(OCC(=O)Nc2ccccc2C(F)(F)F)c1	–	inactive: 24.5%
CC(=O)c1ccc(NC2c3ncccc3C(=O)N2Cc2ccc(F)cc2)cc1 (stereo not drawn)	inconclusive: 3.16 µM [activator, single point]	–
COc1cccc(CNC(=O)CCC2CCCN(C(=O)c3cccnc3SC)C2)c1 (stereo not drawn)	inconclusive: 2.82 µM [activator, single point]	–
OCC1(Cc2ccccc2F)CCCN(Cc2c(F)ccc(F)c2F)C1 (stereo not drawn)	–	inactive: 0.067%
CSc1ncc(C(=O)Nc2ccccc2Cl)c(C)n1	inconclusive: 10 µM [activator, single point]	–
O=C(Nc1ccc(S(=O)(=O)Nc2cnc3ccccc3n2)cc1)c1ccc(Cl)cc1Cl	inconclusive: 15.8 µM [activator, single point]	–
CC1CCc2sc3ncnc(N4CCOCC4)c3c2C1 (stereo not drawn)	inconclusive: 2.82 µM [activator, partial curve, poor fit]	–
CC1CC(C)CN(C(=O)C2CCCN(S(=O)(=O)c3cccc4nonc34)C2)C1 (stereo not drawn)	inconclusive: 5.01 µM [activator, single point]	–
COc1cc(C(=O)N(C)C2CCCCC2)ccc1OC1CCN(C(C)=O)CC1	inconclusive: 4.47 µM [activator, single point]	–
O=C(COc1ccc([N+](=O)[O-])cc1)NNC(=O)Nc1ccccc1F	inconclusive: 20 µM [activator, partial curve, poor fit]	–
CCCCN1C(=O)CCC(C(=O)O)C1c1ccc([N+](=O)[O-])cc1 (stereo not drawn)	inconclusive: 5.01 µM [activator, single point]	–
CCCN(CC(=O)Nc1ccc(C(N)=O)cc1)CC(=O)Nc1ccc(F)c(F)c1F	inconclusive: 5.62 µM [activator, partial curve, poor fit]	–
O=C(Nc1nnc(CCc2ccccc2)s1)c1cccc(F)c1	inconclusive: 14.1 µM [activator, single point]	–

Structure (SMILES)	Potency	activation
Cc1nc2ccc(C(=O)O)cc2c2c1CC(CN)O2 (stereo not drawn)	inconclusive: 3.16 µM [activator, single point]	–
O=C(NCc1ccncc1)c1cc(C(=O)C2CC2)c[nH]1	inconclusive: 28.2 µM [activator, single point]	–
Cc1ccc(C(=O)Cn2nnc(-c3ccccc3)n2)cc1	inconclusive: 12.6 µM [activator, single point]	–
CCCCOc1ccccc1N1CCN(CCCN2C(=O)C3CCCN3C2=O)CC1 (stereo not drawn)	–	inactive: 0%
O=C(NCc1ccco1)c1ccc(C(F)(F)F)cc1	inconclusive: 5.01 µM [activator, single point]	–
O=C(N/N=C/CCc1ccccc1)c1ccc(CN2c3cccc4cccc(c34)S2(=O)=O)cc1	–	inactive: 3.6%
COc1ccccc1CNC(=O)c1ccc(NS(=O)(=O)c2cccs2)cc1	inconclusive: 8.91 µM [activator, partial curve, poor fit]	–
O=C(COc1ccc(Br)cc1)Nc1ccc(CN2CCOCC2)cc1	–	inactive: -31.4%
CCc1cccc(C)c1NC(=O)COC(=O)CC1CCCC1	inconclusive: 0.794 µM [activator, full curve, poor fit]	–
CC(=O)Nc1ccc(-c2nc3ccc(NC(C)=O)cc3o2)cc1	inconclusive: 28.2 µM [activator, single point]	–
Cc1cc(C)n2c(=O)c3ccc(Cl)cc3nc2c1C#N	inconclusive: 5.01 µM [activator, single point]	–
COc1cc(C(=S)N2CCCCC2)ccc1OCC(=O)Nc1ccccc1Cl	inconclusive: 28.2 µM [activator, partial curve, poor fit]	–
Cc1csc(NC(=O)c2ccc(C)c([N+](=O)[O-])c2)n1	–	inactive: 18.2%
CC(C[N+](C)(C)C)OC(=O)C1(c2ccccc2)CCCC1 (stereo not drawn)	inconclusive: 0.355 µM [activator, partial curve, poor fit]	–
CCOCCCn1c(SCC(=O)Nc2ccc(NC(C)=O)cc2)nc2ccccc2c1=O	inconclusive: 2.24 µM [activator, partial curve, poor fit]	–
O=C(c1coc(=O)c2ccccc12)N1CCN(Cc2ccccc2)CC1	inconclusive: 3.55 µM [activator, partial curve, poor fit]	–
C/C(=N/NC(=O)c1ccc(Br)o1)c1cccs1	inconclusive: 3.55 µM [activator, single point]	–
COc1ccc(C2=CC(=O)CC(c3ccc(OC)cc3)C2)cc1 (stereo not drawn)	–	inactive: 0%
CCC(C)Sc1nnc(CNC(=O)C23CC4CC(CC(C4)C2)C3)n1C1CCCCC1 (stereo not drawn)	–	inactive: 9.49%
COc1ccc2cc(C(=O)C3CCCN(Cc4ccccn4)C3)ccc2c1 (stereo not drawn)	–	inactive: -23.1%
Cc1ccc(-c2c(C(=O)N/N=C/c3c[nH]c4ccccc34)nnn2-c2nonc2N)cc1	inconclusive: 28.2 µM [activator, single point]	–
COc1cccc(NC(=S)/C(=C(\[O-])c2cc(C)n(-c3ccccc3F)c2C)[n+]2ccc(N(C)C)cc2)c1	inconclusive: 5.62 µM [activator, partial curve, poor fit]	–

6 of these compounds in another layout.

| Structure (SMILES) | Potency | activation |
| --- | --- | --- |
| Cc1nc2ccc(C(=O)O)cc2c2c1CC(CN)O2 (stereo not drawn) | inconclusive: 3.16 µM [activator, single point] | – |
| CCCCOc1ccccc1N1CCN(CCCN2C(=O)C3CCCN3C2=O)CC1 (stereo not drawn) | – | inactive: 0% |
| O=C(N/N=C/CCc1ccccc1)c1ccc(CN2c3cccc4cccc(c34)S2(=O)=O)cc1 | – | inactive: 3.6% |
| CCc1cccc(C)c1NC(=O)COC(=O)CC1CCCC1 | inconclusive: 0.794 µM [activator, full curve, poor fit] | – |
| CC(C[N+](C)(C)C)OC(=O)C1(c2ccccc2)CCCC1 (stereo not drawn) | inconclusive: 0.355 µM [activator, partial curve, poor fit] | – |
| COc1ccc2cc(C(=O)C3CCCN(Cc4ccccn4)C3)ccc2c1 (stereo not drawn) | – | inactive: -23.1% |
